The campaign covered roughly 220,000 compounds. About 770 (0.35%) were called active. Inconclusive means that the source gave no clear call. Such entries were picked first, then a sample of the others. No stated cut-off is given here; in the data, active means binding response below about 49% or above about 150%; inconclusive means no clear call, values can overlap the other calls; inactive means in between.
The compounds below were run against Guanine nucleotide-binding protein G(o) subunit alpha (Homo sapiens) (UniProt P09471) (assay: RGS7-Galphao binding modulators, primary screen, biochemical, multiplexed bead flow cytometry (AID 1439;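 further: fluorescent Galphao held in activated GDP-AlF4 state binding bead-coupled RGS7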)). Conditions: at 10 µM, actives lie on both sides.

Protein sequences, listed by entry. Tags and fused reporters are not part of them.
UniProt P09471, whole entry, looked up: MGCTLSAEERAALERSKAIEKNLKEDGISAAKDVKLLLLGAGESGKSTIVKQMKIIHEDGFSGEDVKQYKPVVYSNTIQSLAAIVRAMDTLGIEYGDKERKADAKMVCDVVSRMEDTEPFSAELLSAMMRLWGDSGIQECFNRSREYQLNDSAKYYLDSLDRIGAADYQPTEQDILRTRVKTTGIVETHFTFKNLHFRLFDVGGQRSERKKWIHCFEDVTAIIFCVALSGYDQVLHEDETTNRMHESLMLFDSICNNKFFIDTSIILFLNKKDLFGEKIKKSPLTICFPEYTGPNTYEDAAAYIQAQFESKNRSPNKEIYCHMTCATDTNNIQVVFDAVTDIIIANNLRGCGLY

SMILES | binding response (% of control)
O=C(Nc1ccc(F)cc1F)c1csc(-c2cccs2)n1 | inconclusive: 105%
Cc1c(NC(=O)CN2C(=O)C(=O)N(Cc3ccccc3)C2=O)c(=O)n(-c2ccccc2)n1C | inconclusive: 272%
O=c1c2ccccc2nnn1CSc1nnnn1-c1ccc(O)cc1 | inconclusive: 103%
Cc1ccc(C(=O)Nc2cccc(C(F)(F)F)c2)cc1NC(=O)c1nccn1C | inconclusive: 111%
O=C(CN1CCCCC1)Nc1ccc(N2CCCCCC2)cc1 | inactive: 104%
COc1ccc(C(CNC(=O)Cc2c(F)cccc2Cl)N2CCCCC2)cc1 (stereo not given) | inactive: 104%
O=C(CN1CCN(c2ccccc2)CC1)Nc1scc2c1c(=O)oc1ccccc12 | inconclusive: 255%
CC(C)NC(=O)CCCc1c[nH]c2ccccc12 | inactive: 121%
CCOC(=O)c1c(C)noc1-c1ccco1 | inconclusive: 117%
O=C(O)/C=C/C(=O)Nc1ccc2nccnc2c1 | inactive: 96.5%
CCN(CC)c1ccc(/C=C(\C#N)C(=O)c2ccc(Br)cc2)cc1 | inactive: 115%
O=C(CN1C(=O)CSC1=O)NC1CCCCC1 | inactive: 100%
CC(C)N1CCN(Cc2cn[nH]c2C2CCCCC2)CC1CCO (stereo not given) | inactive: 110%
O=C(COc1ccc(OCc2ccccc2)cc1)NC1CCOC1=O (stereo not given) | inactive: 103%
Oc1ccc(N2CCN(C(c3ccccn3)c3nnnn3C3CCCC3)CC2)cc1 (stereo not given) | inactive: 103%
COc1cc(O)c(C(CCN2CCN(c3ccccc3)CC2)c2cc(OC)c(OC)c(OC)c2)c(OC)c1 (stereo not given) | inconclusive: 99.6%
CNC(=O)c1cc(NC(=O)CCn2nc(-c3ccccc3)c3ccccc3c2=O)ccc1OC | inconclusive: 79.4%
CN(Cc1ccc(F)cc1)C(=O)c1ccc2c(c1)NC(=O)CS2 | active: 171% [activator]
Cc1ccc(-n2c(N)c(C(=O)Nc3c(C)n(C)n(-c4ccccc4)c3=O)c3nc4ccccc4nc32)cc1C | inactive: 96.4%
CCN(CC)C(=O)c1cn(-c2ccccc2)nc1-c1ccc2c(c1)OCCO2 | inconclusive: 133%
CC(=O)Nc1ccc(S(=O)(=O)NC(CC(=O)O)c2ccc(C)cc2)cc1 (stereo not given) | inconclusive: 214%
COc1ccccc1N(C(=O)CCl)c1cn(C(C)=O)c2ccccc12 | inconclusive: 150%
CCOC1(/N=C(\C)NS(=O)(=O)c2ccc(Cl)cc2)C(C)=CC(=O)C=C1C | inconclusive: 90.3%

Sorted by length of the SMILES (falling): 6 of the compounds above
SMILES | binding response (% of control)
Cc1c(NC(=O)CN2C(=O)C(=O)N(Cc3ccccc3)C2=O)c(=O)n(-c2ccccc2)n1C | inconclusive: 272%
CC(=O)Nc1ccc(S(=O)(=O)NC(CC(=O)O)c2ccc(C)cc2)cc1 (stereo not given) | inconclusive: 214%
Oc1ccc(N2CCN(C(c3ccccn3)c3nnnn3C3CCCC3)CC2)cc1 (stereo not given) | inactive: 103%
COc1ccc(C(CNC(=O)Cc2c(F)cccc2Cl)N2CCCCC2)cc1 (stereo not given) | inactive: 104%
O=c1c2ccccc2nnn1CSc1nnnn1-c1ccc(O)cc1 | inconclusive: 103%
O=C(CN1C(=O)CSC1=O)NC1CCCCC1 | inactive: 100%

(listing goes on)

SMILES | binding response (% of control)
N#Cc1cc(-c2ccc(Cl)cc2)cnc1Sc1ccccc1 | active: 14.8%
CN(CC(=O)Nc1cccc2ccccc12)C(=O)c1cccc(S(=O)(=O)N(C)C)c1 | inconclusive: 98.8%
CCOc1ccc(N2CC(O)=C(c3ccccc3)C2=N)cc1 | inactive: 118%
CCOC(=O)c1ccc(NC(=S)NCCc2ccccc2F)cc1 | inconclusive: 96.3%
O=C(O)c1cc(C(=O)O)cc(-c2ccc(/C=c3/sc4nc5ccccc5n4c3=O)o2)c1 | inconclusive: 84.9%
CN(CC(=O)Nc1ccccc1Cl)C(=O)c1cc(=O)[nH]c2ccccc12 | inconclusive: 150%
CCc1ccc(NC(=O)CSc2nnc(Cn3c(=O)sc4ccccc43)n2C)cc1 | inactive: 104%
Cc1ccc(CN2CCSc3ccc(C(=O)NCc4ccccn4)cc32)cc1 | inactive: 104%
CCOC(=O)c1sc(-c2ccccn2)nc1C | inactive: 103%
COCCN(C(=O)CSc1nnc(Nc2ccccc2F)s1)c1c(N)n(Cc2ccccc2)c(=O)[nH]c1=O | inactive: 95.5%
Cn1c2c(c(=O)n(C)c1=O)C(CC(=O)Nc1ccccc1F)C(=O)N2 (stereo not given) | inconclusive: 91%
O=C(COC(=O)CNC(=O)c1ccc(Cl)cc1)Nc1cccc(S(=O)(=O)N2CCCC2)c1 | inconclusive: 63.9%
CCN(CC)S(=O)(=O)c1ccc(OCCNS(C)(=O)=O)cc1 | inactive: 104%
Cc1c2cc(O)c(=O)cc-2oc2cc(O)c(O)cc12 | active: -4.92%
C=C1CCN(C(C(=O)OC)C(C)C)S(=O)(=O)c2ccc(F)cc21 (stereo not given) | inconclusive: 52.5%
N#C/C(=N\Nc1ccc(Cl)cc1)C(=N)N1CCCCCC1 | inconclusive: 105%
COc1ccc(-n2c(=S)[nH]c3ncccc3c2=O)cc1 | inconclusive: 3.88%
COC(=O)[C@@H]1C[C@@]2(O)[C@@H](O)[C@@H](O)[C@@H](O)C[C@H]2N1CC(c1ccccc1)c1ccccc1 | inconclusive: 113%
C/C(N)=C(/C#N)C(=O)COC(=O)CNS(=O)(=O)c1ccc2ccccc2c1 | inconclusive: -50.9%
N#CC1(Nc2cccc(Br)c2)C(=O)Nc2ccccc21 (stereo not given) | inconclusive: 123%
COC(=O)c1cc2c(ccn2-c2ccc(F)cc2)n1CC(C)C | inactive: 96.7%
Cc1ccc(Cn2cnc3c(cnn3-c3ccc(F)cc3)c2=O)cc1 | inactive: 98.4%
CC(=O)N1c2ccccc2NC2=C(C(=O)CCC2)C1c1cccnc1 (stereo not given) | inactive: 105%

SMILES | binding response (% of control)
COc1cc(C)nc(-c2csc(C)n2)n1 | inconclusive: 97.8%
Cc1cc(NC(=O)CCSc2ccc(Cl)cc2)no1 | inconclusive: 82.2%
O=C(Nc1ccc(-c2cnco2)cc1)c1ccc(F)cc1F | inconclusive: 96.5%
CCOc1ccc(-c2nnc(-c3ccccc3)o2)cc1 | inactive: 94.5%
CCOC(=O)CC(NC(=O)c1cccc2c1C(=O)N(Cc1cccnc1)C2)c1ccc(OC(C)C)cc1 (stereo not given) | inactive: 109%
CCOC(=O)c1cnc2c(c(C)nn2CC)c1NCCN1CCOCC1 | inactive: 106%
NS(=O)(=O)c1ccc(NC(=O)COC(=O)c2cc3ccccc3oc2=O)cc1 | inconclusive: 103%
FC(F)(F)c1nc2cc3nc4ccccc4[nH]c3cc2n1 | inconclusive: 95.9%
O=C(Nc1ccccc1-c1ccccc1)C(=O)Nc1ccccc1-c1ccccc1 | inconclusive: 101%
O=C(c1ccc2c(c1)OCCCO2)N1CCCCC1 | inconclusive: 134%
Cc1ccccc1C1CC(c2cccs2)Nc2nnnn21 (stereo not given) | inconclusive: 110%
CC(=O)Nc1cc(C(=O)NCc2ccco2)ccc1Sc1ccc(C)cc1 | inactive: 98.5%
Cn1c(=O)c2c(nc(NCCOc3ccc(F)cc3)n2C)n(C)c1=O | inactive: 106%
COc1cc(/C=C/C(=O)O)cc(S(=O)(=O)NC2CCCC2)c1OC | inconclusive: 104%
C=CC[n+]1c(-c2ccc(Cl)cc2Cl)csc1Nc1ccc(NC(C)=O)cc1 | inconclusive: 78.5%
COc1ccc(C(C)(C)C)cc1S(=O)(=O)n1ccnc1C | inactive: 103%
O=C(C1CCC(CNc2c(N3CCCCC3)c(=O)c2=O)CC1)N1CCCC1 (stereo not given) | inconclusive: 101%
COC(=O)[C@H](CC(C)C)NC(=O)Nc1ccccc1F | inconclusive: 79.2%
Cc1cccc(NC(=O)CSc2nc3nc4c(cc3c(=O)n2-c2ccccc2)CCCC4)c1 | inactive: 101%
Cc1onc(-c2c(Cl)cccc2Cl)c1C(=O)Nc1ccc(N2CCOCC2)cc1 | inconclusive: 133%
C=CCn1c(O)c(N=Nc2nc3ccccc3c(=O)n2-c2ccccc2)c2ccccc21 | inactive: 97.1%
COc1ccc2oc(=O)c(C(=O)OCC(=O)c3ccc([N+](=O)[O-])cc3)cc2c1 | inconclusive: 69.2%
C/C(=N\Nc1nc(C)c(C)s1)c1ccc([N+](=O)[O-])cc1 | inactive: 102%

SMILES | binding response (% of control)
CC(=O)Nc1ccc(N2CCC(C)CC2)c([N+](=O)[O-])c1 | inconclusive: 78.4%
CCN1CCN(Cc2cc(=O)oc3ccc(Cl)cc23)CC1 | inactive: 107%
COc1ccc(-c2[nH]ncc2-c2cscn2)c(O)c1 | inconclusive: 96.8%
Cc1ccc(-n2c(SCC(=O)Nc3cccc(S(N)(=O)=O)c3)nc3ccccc32)cc1 | inactive: 101%
CC(C)(O)c1ccc2c(c1)CCC1C(C)(C(=O)O)CCCC21C (stereo not given) | inconclusive: 67.4%
Cn1sc(=O)c2cc(S(=O)(=O)NC3CC3)ccc21 | inconclusive: 117%
CCN(CC)c1ccc(/C=N/NC(=O)c2ccccn2)cc1 | inconclusive: 84%
CSc1nc(-c2ccccc2)nn1S(=O)(=O)c1ccccc1 | active: 171% [activator]
COc1ccc(CC(=O)OCC(=O)NCCc2ccccc2)cc1OC | inactive: 105%
C=C(C)C(=O)N1CC2(CC(c3cccc(NC(=O)/C(C)=C\C)c3)=NO2)C[C@H]1C(N)=O (stereo not given in full) | inconclusive: 123%
O=C(Cn1cnc2ccccc21)N1CCN(S(=O)(=O)c2ccccc2)CC1 | inconclusive: 101%
O=C(c1ccc(Cl)cc1[N+](=O)[O-])N1CCc2ccccc2C1 | inactive: 105%
O=C(Nc1c[nH]c(=O)[nH]c1=O)c1ccc2c(c1)C(=O)N(c1cccc([N+](=O)[O-])c1)C2=O | inconclusive: 2%
CSCCC(NS(=O)(=O)c1ccc2c(c1)oc(=O)n2C)C(=O)NCc1ccc(C)cc1 (stereo not given) | inconclusive: 94.5%
Cc1ccc(CN2CCN(/N=C/C(Br)=C\c3ccccc3)CC2)cc1 | inconclusive: 110%
Cc1nnsc1-c1c(C(=O)Oc2ccccc2)c(C)nn1-c1ccccc1 | inconclusive: 96.3%
O=C(Nc1cccc(-c2nnco2)c1)c1cccs1 | inconclusive: 582%
c1ccc(-c2nnc(-c3ccccc3)nn2)cc1 | inconclusive: 106%
Cc1nnc(SCCN2CCOCC2)c2nn(-c3ccccc3F)c(C)c12 | inactive: 109%
Cc1ccc(NC(=S)Nc2c(C)n(C)n(-c3ccccc3)c2=O)cc1Cl | inconclusive: 96.9%
CCOC(=O)c1csc(COc2ccc(OC)cc2)n1 | inconclusive: 113%

From PubChem BioAssay AID1439 (NMMLSC, 2008)
